Assay results reported in PubChem BioAssay AID602346 (Broad Institute, 2012).
Among all 340,000 compounds or so, about 1,200 (0.35%) were called active. Inconclusive results, whose numbers are uncertain, are shown with a selection of clear calls. Rule as the data show it: active = inhibition above about 50% (passing the limit was not always enough); inconclusive = no clear call, values can overlap the other calls; inactive = below about 31%.

Assay: blockers of Vif multimerization in cells – imaging, HEK293T, single point, primary screen (AID 602346)
Settings: Vif self-association by quenched fluorescence, 24 h, at 7.49 µM, stronger effect = higher value

Structure (SMILES) | inhibition
CC(C)(C)NC(=O)C(c1ccncc1)N(C(=O)Cn1nnc(-c2ccc(F)cc2)n1)c1ccccc1F (stereo unspecified) | active: 60.5%
CC(C)NC(=O)C(c1ccc(F)cc1)N(C(=O)CCC(=O)Nc1ccccn1)c1cccc(F)c1 (stereo unspecified) | active: 74.3%
CCOC(=O)c1sc(NC(=O)c2ccc(=O)[nH]c2)nc1C | inconclusive: 34.4%
CCc1ccc(CCC(=O)Nc2nnc(C)s2)o1 | active: 55%
COC(=O)c1ccc(C(=O)OC)c(NC(=O)COC(=O)C23CC4CC(CC(O)(C4)C2)C3)c1 | active: 51.8%
O=C(Nc1cccc(S(=O)(=O)NC2=NCCC2)c1)c1cn(-c2ccccc2)nc1-c1ccc(F)cc1 | inactive: -0.826%
CC(=O)c1cccc(NC(=O)C(C)OC(=O)CCn2c(C)csc2=O)c1 (stereo unspecified) | inactive: -0.178%
CC(C)c1ccc(NC(=S)N2CCCC(c3ccc(F)cc3)=N2)cc1 | inconclusive: 31%
COc1ccc2[nH]c3c4c(ccc3c2c1)C(=O)C=CC4=O | active: 51.5%
Cc1ccc(S(=O)(=O)Nc2cc(-c3nn(C)c(=O)c4ccccc34)ccc2N2CCOCC2)cc1 | inconclusive: 34.5%
CN(CCC(=O)Nc1ccc(Br)cc1)Cc1ccccc1 | inconclusive: 28%
NC(=O)Nc1ccc(Cl)cc1 | inconclusive: 33.6%
N/C(=C\C(=O)c1cc(Cl)ccc1O)C(Cl)(Cl)Cl | inconclusive: 43%
COc1ccc(N=C2NC(=O)S/C2=C\c2ccc(N(C)C)cc2)cc1 | active: 104%
CCC(CC)C(=O)c1c[nH]c(C(=O)NCc2cccs2)c1 | inconclusive: 26.2%
O=C(O)c1cc(S(=O)(=O)N2CCOCC2)c[nH]1 | inconclusive: 34.2%
CCOc1ccc(S(=O)(=O)N(CC)CC(=O)NC2CCS(=O)(=O)C2)cc1 (stereo unspecified) | inconclusive: 30.1%
CCCCc1ccc(-c2csc(/C(C#N)=C\c3ccco3)n2)cc1 | active: 50.8%
COc1cccc(NC(=S)NC(Cc2ccccc2)c2ccccc2)c1 (stereo unspecified) | inconclusive: 24.1%
CN(C)c1ccc(C2C3CCCc4ccccc4C3=NN2C)cc1 (stereo unspecified) | inconclusive: 28.2%
CCCc1nn2c(-c3ccccc3)nnc2o1 | inconclusive: 37.8%
CN(C)S(=O)(=O)Oc1ccccc1C(=O)Nc1ccc(F)cc1F | inactive: 13%
CC(Oc1ccc(C#N)cc1)C(=O)Nc1ccc(-n2cnnn2)cc1 (stereo unspecified) | inconclusive: 38.7%

Structure (SMILES) | inhibition
O=C(Cn1c(/C=C/c2ccccc2)nc2ccccc21)Nc1ccc(F)cc1 | inactive: -4.31%
c1ccc(N2CC3COc4ccccc4C3=N2)cc1 (stereo unspecified) | inactive: 2.69%
Cn1c(/C=C(\C#N)C(N)=S)ccc1-c1ccc(Br)cc1 | inactive: -6.86%
O=C(N/C(=C\c1ccccc1)C(=O)N1CCOCC1)c1ccc(Br)o1 | inconclusive: 27.5%
O=C(CNC(=O)c1ccc([N+](=O)[O-])cc1)N/N=C\c1ccc(OC(=O)c2ccccc2)cc1 | active: 50.2%
O=C(CCNC(=O)Cn1cnc2ccccc2c1=O)NCC1CCCO1 (stereo unspecified) | inconclusive: 42.5%
C=C(C)CSc1cc(C)nc2c(-c3ccccc3)c(C)nn12 | inactive: 1.98%
O=S(=O)(c1ccc(NC(=S)Nc2ccc3c(c2)OCO3)cc1)N1CCOCC1 | inactive: -13.4%
CC1(C)CC(=O)C(/C=N/n2c(C(F)(F)F)nc3ccccc3c2=O)=C(O)C1 | active: 85.5%
COc1ccc(C(=O)OC2C(OC)OCC(O)C2O)cc1 (stereo unspecified) | inconclusive: 28.3%
COCCNS(=O)(=O)c1ccc(SC)cc1 | inconclusive: 41.3%
COc1ccc(S(=O)(=O)Nc2cc(C)on2)cc1OC | inconclusive: 45%
O=C(Nc1cccnc1)c1cc(-c2ccc(Cl)cc2Cl)on1 | inactive: 4.8%
O=C(Nc1ccc(Oc2cccc3ccccc23)cc1)c1ccco1 | inactive: -12.5%
Cc1ccccc1Oc1nc2c(C)cccn2c(=O)c1/C=C(\C#N)C(=O)Nc1c(C)n(C)n(-c2ccccc2)c1=O | active: 124%
Cc1ccc(-n2c(-c3cc(C)n(C)n3)n[nH]c2=S)cc1 | inconclusive: 36.7%
CC(=O)c1ccc(N=C2NC(=O)C(CO)(CO)S2)cc1 | inconclusive: 34.6%
Cc1cccc(COCC(Cc2ccccc2)N2CCN(C(=O)c3cccc(Cl)c3)CCC2=O)c1 (stereo unspecified) | inconclusive: 32.9%
CCCCCCOc1ccc(C(=O)O)cc1C#N | inconclusive: 21.8%
Cc1nc(C(F)(F)F)c(C(=O)N/N=C(\N)c2ccccn2)s1 | inactive: -3%
Cc1ccnc(SCC(=O)n2c3c(c4ccccc42)CC(C)CC3)n1 (stereo unspecified) | inconclusive: 44%
S=c1[nH]ccn1-c1cccc(Cl)c1Cl | active: 52.4%
Cc1ccc(NC(=S)NCCc2ccc(S(N)(=O)=O)cc2)c(C)c1 | inconclusive: 38.9%

Retrieved one by one from above, four records:
Structure (SMILES) | inhibition
CC1(C)CC(=O)C(/C=N/n2c(C(F)(F)F)nc3ccccc3c2=O)=C(O)C1 | active: 85.5%
O=C(Nc1cccnc1)c1cc(-c2ccc(Cl)cc2Cl)on1 | inactive: 4.8%
Cc1cccc(COCC(Cc2ccccc2)N2CCN(C(=O)c3cccc(Cl)c3)CCC2=O)c1 (stereo unspecified) | inconclusive: 32.9%
Cc1ccc(-n2c(-c3cc(C)n(C)n3)n[nH]c2=S)cc1 | inconclusive: 36.7%

(list continues)

Structure (SMILES) | inhibition
CSc1cc(/C=N/O)c(SC)s1 | inactive: -1.43%
O=C(CN(Cc1ccco1)C(=O)CNS(=O)(=O)c1ccc(Cl)cc1)NC1CCCCC1 | inconclusive: 37.5%
Cc1ccc(NC(=S)Nc2ccc(Cl)c(Cl)c2)c(OC(F)F)c1 | inactive: -8.5%
Cc1cccc(NC(=O)c2nc[nH]c2C(=O)NCC(=O)OCc2ccccc2)c1 | inconclusive: 31.9%
CC(=O)Nc1ccc(S(=O)(=O)N2CCC(N(C)CCC(C)C)CC2)cc1 | inconclusive: 34.6%
C=C1C(=O)O[C@@H]2[C@H]1[C@@H](OC(=O)/C(C)=C/C)C/C(C)=C\C(=O)/C=C(\C)[C@@H]2O | active: 97.1%
C/C(=N\NC(=O)CNC(=O)c1ccc(F)cc1)c1ccco1 | active: 72.5%
CCOC(=O)CSc1nc(-c2ccccc2)nc2ccc(C)cc12 | inactive: -1.69%
Cc1cc(N/C=C(\C#N)S(=O)(=O)c2ccccc2Cl)nc(C)n1 | inconclusive: 46.1%
[O-][n+]1cccc2cccc(O)c21 | inconclusive: 33.4%
CCCCOc1ncnc2c1[nH]c1ccccc12 | active: 88.3%
Oc1cccc2c3c(oc12)CCCC3 | active: 69.8%
O=C(c1cc(-c2ccncc2)nc2ccccc12)N1CCN(Cc2ccccc2)CC1 | active: 50.6%
Cc1noc(C)c1C(=O)NCCCN1CCCC1=O | inconclusive: 35.3%
CCCS(=O)(=O)NC(=O)C1(C)CCCN(C(=O)c2cc(F)ccc2C)C1 (stereo unspecified) | inconclusive: 27.5%
Cc1csc(SCCn2c(N3CCN(c4ccccc4)CC3)nc3c2c(=O)[nH]c(=O)n3C)n1 | active: 56.9%
CCOC(=O)C1CCCN(Cc2ccc(OC)cc2OC)C1 (stereo unspecified) | active: 54.7%
CC(C)Cn1c(N)c(C(=O)CSc2n[nH]c(N)n2)c(=O)n(C)c1=O | inconclusive: 29.9%
Cc1cc(C)nc(NC2=NCC(=O)N2c2ccc(F)c(Cl)c2)n1 | inconclusive: 45.4%
COc1ccc([N+](=O)[O-])cc1NC(=O)COC(=O)Cn1cnc2ccccc2c1=O | inactive: -2.98%
CCN1CCN(CCCN(Cc2ccco2)C(=S)Nc2ccc(Cl)cc2)CC1 | inconclusive: 47.8%
COc1ccccc1CNS(=O)(=O)c1ccc(-n2cccn2)cc1 | inconclusive: 27%
CCC(C)CNC(=O)c1[nH]c(C(F)(F)F)nc1-c1ccccc1 (stereo unspecified) | inactive: 0.457%

Structure (SMILES) | inhibition
COc1cccc(CN(C)C(=O)C23CC4CC(CC(C4)C2)C3)c1 | inconclusive: 29.5%
COc1cc(CNCC(C)C)c(Br)cc1OCC(=O)NCc1ccccc1 | inactive: -3.71%
CCC1(CC)NC(=O)N(CC(=O)Nc2ccc(OCc3ccccc3)cc2)C1=O | active: 54.9%
Cc1cccc(C)c1NC(=O)CCS(=O)(=O)c1cccc2nonc12 | inconclusive: 45.5%
N/C(=N\OC(=O)c1ccc(=O)n(Cc2ccccc2)c1)c1ccccn1 | inactive: -3.13%
Cc1ccnn1CC(=O)N/N=C/c1c[nH]c2ccccc12 | inconclusive: 22.3%
O=C(COC(=O)COc1ccccc1)Nc1ncc([N+](=O)[O-])s1 | inactive: -2.02%
COc1ccc(/C=C/C(=O)NC(=S)NCCc2ccc(OC)c(OC)c2)cc1 | active: 70.3%
COc1ccccc1/C=C1\SC(=S)N(CCC(=O)NCCCn2ccnc2)C1=O | inconclusive: 43%
CCC1(c2ccccc2)NC(=O)N(CC(=O)Nc2cccc(C#N)c2)C1=O (stereo unspecified) | inactive: -0.0945%
Cc1nn(CC(=O)NC(=O)c2ccccc2)c(C)c1[N+](=O)[O-] | active: 54.3%
CCN1/C(=C2\OC(=S)N(C)C2=O)C=Cc2ccccc21 | inconclusive: 33.5%
CCCCn1c(N)c(N(C(=O)CSc2nncn2-c2ccccc2)C2CCCC2)c(=O)[nH]c1=O | inconclusive: 47.1%
O=C1c2ccccc2[C@@H]2C[C@@H](O)[C@H](Nc3ccccc3)CCN12 | inconclusive: 25.3%
Cc1cc(C)c(NC(=O)COc2ccccc2C(=O)Nc2ccc3c(c2)oc2ccccc23)c(C)c1 | inconclusive: 44%
O=C(NCCNS(=O)(=O)c1cccc(C(F)(F)F)c1)c1cc(OCC(F)(F)F)ccc1OCC(F)(F)F | inactive: 16.5%
Cn1c(NC(=O)c2ccco2)cc(=O)n(C)c1=O | inconclusive: 28.6%
Cc1ccccc1-c1cnc(C(O)c2ccc(C(C)(C)C)cc2)[nH]1 (stereo unspecified) | inactive: 16.4%
Cc1ccc(NC(=O)c2nc[nH]c2C(=O)Nc2ccccc2F)cc1 | active: 90.1%
COc1cc(/C=N/NC(=O)c2cc[n+]([O-])cc2)ccc1O | inconclusive: 41.2%
CCC(=O)Nc1cccc(C2=NOC3(C2)C[C@@H](C(N)=O)N(C(=O)C2(C)CC2)C3)c1 (stereo partly specified) | inactive: -1.64%
O=C(c1ccc(OC2CCN(Cc3cccc(OCCO)c3)CC2)cc1)N1CCCC1 | inactive: 1.77%
